These are yes or no findings as the source states them, for the method shown.
Biological target: MOKV G_(1-436)* (soluble Mokola virus glycoprotein G ectodomain, fusion loops replaced by hydrophilic sequences) (Mokola virus) (UniProt P0C572)
Assay: crystal structure; both purified

MOKV G_(1-436)* (soluble Mokola virus glycoprotein G ectodomain, fusion loops replaced by hydrophilic sequences) (from UniProt P0C572 20-455) (domain or fragment)
binding: no binding

— article PMC7082061 (PLoS Pathogens, 2020)
